Data from patent publication US20030165934A1.
These are yes or no findings as the source states them, for the method shown. Binding seen in cells or lysates may run through a third protein. Some results given as binding are weak or reduced against the parent protein; the word gives no strength. Where a sequence is shown, tags or fusion partners need not be part of it.

Amino acid sequences for entries named in this document (tags omitted). A change or cut given only in a name is not applied to a line headed by its entry.
UniProt P35250: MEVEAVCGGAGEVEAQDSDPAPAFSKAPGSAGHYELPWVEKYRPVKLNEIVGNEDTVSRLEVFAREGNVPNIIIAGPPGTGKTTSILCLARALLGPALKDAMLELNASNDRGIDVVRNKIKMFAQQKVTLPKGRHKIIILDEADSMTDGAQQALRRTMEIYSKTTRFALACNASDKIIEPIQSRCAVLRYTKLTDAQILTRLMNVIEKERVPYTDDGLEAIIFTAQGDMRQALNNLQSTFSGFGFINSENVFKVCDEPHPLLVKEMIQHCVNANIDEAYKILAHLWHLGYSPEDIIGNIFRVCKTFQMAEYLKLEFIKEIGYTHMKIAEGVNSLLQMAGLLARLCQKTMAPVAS

Molecular target: RFC2-5 subunits (UniProt P35250)
Experiment: co-purification through the Flag tag from baculovirus infected insect cells

B1: recombinant human Rad17 protein tagged with a Flag epitope at its N terminus, purified from baculovirus infected insect cells (protein, not shown: small tags and cut ends)
chain: MNQVTDWVDPSFDDFLECSGVSTITATSLGVNNSSHRRKNGPSTLESSRFPARKRGNLSSLEQIYGLENSKEYLSENEPWVDKYKPETQHELAVHKKKIEEVETWLKAQVLERQPKQGGSILLITGPPGCGKTTTLKILSKEHGIQVQEWINPVLPDFQKDDFKGMFNTESSFHMFPYQSQIAVFKEFLLRATKYNKLQMLGDDLRTDKKIILVEDLPNQFYRDSHTLHEVLRKYVRIGRCPLIFIISDSLSGDNNQRLLFPKEIQEECSISNISFNPVAPTIMMKFLNRIVTIEANKNGGKITVPDKTSLELLCQGCSGDIRSAINSLQFSSSKGENNLRPRKKGMSLKSDAVLSKSKRRKKPDRVFENQEVQAIGGKDVSLFLFRALGKILYCKRASLTELDSPRLPSHLSEYERDTLLVEPEEVVEMSHMPGDLFNLYLHQNYIDFFMEIDDIVRASEFLSFADILSGDWNTRSLLREYSTSIATRGVMHSNKARGYAHCQGGGSSFRPLHKPQWFLINKKYRENCLAAKALFPDFCLPALCLQTQLLPYLALLTIPMRNQAQISFIQDIGRLPLKRHFGRLKMEALTDREHGMIDPDSGDEAQLNGGHSAEESLGEPTQATVPETWSLPLSQNSASELPASQPQPFSAQGDMEENIIIEDYESDGT
In the case of B1, the binding is reported as “binds”.
